For this assay, the target named is T1, α-carboxyltransferase (α-CT) subunit of hetACCase, AT2G38040, Arabidopsis thaliana (Arabidopsis thaliana) (UniProt Q9LD43).
T1 sequence: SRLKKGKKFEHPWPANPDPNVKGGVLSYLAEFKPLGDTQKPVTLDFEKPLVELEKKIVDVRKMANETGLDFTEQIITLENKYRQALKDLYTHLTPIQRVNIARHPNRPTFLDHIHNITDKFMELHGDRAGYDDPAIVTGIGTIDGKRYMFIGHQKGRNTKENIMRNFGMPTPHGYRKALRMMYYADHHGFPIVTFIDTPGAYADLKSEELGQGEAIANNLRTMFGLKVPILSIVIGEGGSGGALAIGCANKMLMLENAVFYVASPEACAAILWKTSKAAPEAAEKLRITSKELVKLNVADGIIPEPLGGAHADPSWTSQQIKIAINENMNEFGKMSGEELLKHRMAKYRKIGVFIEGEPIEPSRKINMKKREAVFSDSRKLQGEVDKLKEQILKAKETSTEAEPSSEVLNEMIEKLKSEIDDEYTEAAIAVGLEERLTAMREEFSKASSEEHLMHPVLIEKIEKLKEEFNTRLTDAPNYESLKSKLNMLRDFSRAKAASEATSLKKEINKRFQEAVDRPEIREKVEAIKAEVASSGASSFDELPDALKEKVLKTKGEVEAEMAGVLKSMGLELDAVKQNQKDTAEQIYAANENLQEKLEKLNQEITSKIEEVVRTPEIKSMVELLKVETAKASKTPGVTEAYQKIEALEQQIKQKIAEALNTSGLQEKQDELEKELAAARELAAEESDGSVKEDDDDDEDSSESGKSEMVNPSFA
The assay can be described thus: co-IP from chloroplast lysate with anti-α-CT antibody, LC-MS/MS.

These are yes or no findings as the source states them, for the method shown. Binding seen in cells or lysates may run through a third protein. Some results given as binding are weak or reduced against the parent protein; the word gives no strength.

B1: β-carboxyltransferase (β-CT) subunit of hetACCase, ATCG00500, Arabidopsis thaliana (enzyme, UniProt P56765 1-488, looked up)
chain: MEKSWFNFMFSKGELEYRGELSKAMDSFAPGEKTTISQDRFIYDMDKNFYGWDERSSYSSSYSNNVDLLVSSKDIRNFISDDTFFVRDSNKNSYSIFFDKKKKIFEIDNDFSDLEKFFYSYCSSSYLNNRSKGDNDLHYDPYIKDTKYNCTNHINSCIDSYFRSYICIDNNFLIDSNNFNESYIYNFICSESGKIRESKNYKIRTNRNRSNLISSKDFDITQNYNQLWIQCDNCYGLMYKKVKMNVCEQCGHYLKMSSSERIELLIDPGTWNPMDEDMVSADPIKFHSKEEPYKNRIDSAQKTTGLTDAVQTGTGQLNGIPVALGVMDFRFMGGSMGSVVGEKITRLIEYATNQCLPLILVCSSGGARMQEGSLSLMQMAKISSVLCDYQSSKKLFYISILTSPTTGGVTASFGMLGDIIIAEPYAYIAFAGKRVIEQTLKKAVPEGSQAAESLLRKGLLDAIVPRNLLKGVLSELFQLHAFFPLNTN
Consider B1, for which the binding result was “binds”.
